Source: the supplement of paper PMC12067093, “Discovery and optimisation of a covalent ligand for TRIM25 and its application to targeted protein ubiquitination” (Chemical Science, 2025)
Some of the results follow.

Compound: Cc1cc(ccc1-c1ccccc1)C(=O)N1CCCN(CC1)C(=O)CCl [compound 10]
Assay: probe-labelled cysteine peptide fold change vs DMSO (competition) (log2 fold change); higher = less target engagement (more negative = stronger competition)
Conditions: THP-1, incubation time: 4 h
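Further: competitive profiling in live THP-1 cells: cysteine peptides tagged with an iodoacetamide desthiobiotin (IA-DTB) probe, intensity after compound treatment relative to DMSO-treated cells.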

| Target | probe-labelled cysteine peptide fold change (10 µM) | probe-labelled cysteine peptide fold change (50 µM) |
| --- | --- | --- |
| RASSF4_Q9H2L5_236_DCEYPLISR (UniProt Q9H2L5) | -0.0856 | -0.0498 |
| RC3H1_Q5TC82_1049_ELSMENQCSLDMK (UniProt Q5TC82) | -0.342 | -0.469 |
| RASAL3_Q86YV0_447_LCGALEPALPAQAK (UniProt Q86YV0) | 0.184 | 0.0548 |
| RCC2_Q9P258_305_AQRIEYDCELVPR (UniProt Q9P258) | -0.00203 | -0.629 |
| RBX1_P62877_94_QVCPLDNR (UniProt P62877) | -0.0174 | 0.204 |
| RDH10_Q8IZV5_170_TMMVNCHAHFWTTK (UniProt Q8IZV5) | -0.0346 | -0.182 |
| RCHY1_Q96PM5_20_GCEHYDR (UniProt Q96PM5) | -0.00508 | -0.102 |
| RBL1_P28749_1047_VCQENDDVLLK (UniProt P28749) | -0.143 | -0.0793 |
| RASAL2_Q9UJF2_189_YFCELCLDDTLFAR (UniProt Q9UJF2) | 0.00959 | -0.237 |
| RBM12_Q9NTZ6_545_VCAHITNIPFSITK (UniProt Q9NTZ6) | 0.115 | -0.0693 |
| RAPGEF6_Q8TEU7_1413_HTHLDDPIAEVEPTDSEPYSCSK (UniProt Q8TEU7) | -0.346 | -0.271 |
| RC3H1_Q5TC82_143_KLVTLVHCQLVEEEGR (UniProt Q5TC82) | 0.0192 | -0.0389 |
| RAI1_Q7Z5J4_40_QPSQAGLSCDR (UniProt Q7Z5J4) | -0.205 | -0.513 |
| RANBP6_O60518_118_LCDIFAVLAR (UniProt O60518) | -0.0407 | 0.252 |
| RBM47_A0AV96_71_GCEVFVGK | 0.081 | 0.0796 |
| RCC1L_Q96I51_181_VLQVSCGR (UniProt Q96I51) | 0.107 | 0.0672 |
| RALGAPB_Q86X10_278_VPDEDASLIPPEMDNECVAQTWFR (UniProt Q86X10) | -0.15 | 0.188 |
| RASAL2_Q9UJF2_360_CGEHDVLIFR (UniProt Q9UJF2) | 0.00381 | -0.0441 |
| RBBP7_Q16576_97_VHIPNDDAQFDASHCDSDK (UniProt Q16576) | -0.205 | -0.18 |
| RASA2_Q15283_354_SPDVQPISASAAYILSEICR (UniProt Q15283) | 0.296 | 0.129 |
| RBBP6_Q7Z6E9_296+299_TALLESDEHTCPTCHQNDVSPDALIANK (UniProt Q7Z6E9) | -0.117 | -0.635 |
| RBBP6_Q7Z6E9_44_AADCDLQITNAQTK (UniProt Q7Z6E9) | -0.176 | 0.102 |

| Target | probe-labelled cysteine peptide fold change (10 µM) | probe-labelled cysteine peptide fold change (50 µM) |
| --- | --- | --- |
| RBM27_Q9P2N5_776_LGHAGGNQSDASHLLNQSGGAGEDCQIFSTPGHPK (UniProt Q9P2N5) | 0.0152 | -0.172 |
| RCAN3_Q9UKA8_173_QSEDAMPVINYDLLCAVSK (UniProt Q9UKA8) | 0.00859 | 0.15 |
| RCHY1_Q96PM5_172_TCYEEMLK (UniProt Q96PM5) | 0.00802 | -0.16 |
| RANBP9_Q96S59_678_EPVCSALNSAILETHNLPK (UniProt Q96S59) | -0.0619 | 0.131 |
| RANGAP1_P46060_152_LNNCGMGIGGGK (UniProt P46060) | -0.173 | -0.158 |
| RBKS_Q9H477_73_LGAMTSMVCK (UniProt Q9H477) | -0.0496 | -0.178 |
| RANGAP1_P46060_169_ILAAALTECHR (UniProt P46060) | -0.0288 | -0.0217 |
| RARS2_Q5T160_479_LHSLEETFGCGYLNDFNTACLQEPQSVSILQHLLR (UniProt Q5T160) | -0.037 | 0.0628 |
| RBCK1_Q9BYM8_411_AIHEQMNCK (UniProt Q9BYM8) | -0.0774 | -0.255 |
| RAP1GDS1_P52306_350_NDANCIHMVDNGIVEK (UniProt P52306) | -0.0927 | 0.0269 |
| RAN_P62826_120_VCENIPIVLCGNKVDIK (UniProt P62826) | -0.278 | -0.646 |
| RBBP4_Q09028_138_YMPQNPCIIATK (UniProt Q09028) | 0.0321 | -0.0569 |
| RB1_P06400_438_AVGQGCVEIGSQR (UniProt P06400) | -0.208 | 0.131 |
| RALGAPB_Q86X10_1096_SFPDPVTDCKPPPPAQEFQTAR (UniProt Q86X10) | 0.0369 | 0.00903 |
| RANBP2_P49792_1549_KEGQWDCSSCLVR (UniProt P49792) | 0.101 | -0.316 |
| RAP1B_P61224_51_QVEVDAQQCMLEILDTAGTEQFTAMR (UniProt P61224) | 0.124 | 0.124 |
| RBM4_Q9BWF3_89_LHVGNISPTCTNK (UniProt Q9BWF3) | -0.0262 | -0.0246 |
| RAP1GAP2_Q684P5_171_DHLNFYCTGSSLGNLILSVK (UniProt Q684P5) | -0.0643 | 0.0475 |
| RBBP5_Q15291_233_EILTCGR (UniProt Q15291) | -0.0732 | 0.0901 |
| RBM34_P42696_196_TVFVGNLPVTCNKK (UniProt P42696) | 0.0417 | -0.242 |
| RBM39_Q14498_478_CPSIAAAIAAVNALHGR (UniProt Q14498) | -0.0988 | -0.00341 |
| RAPGEF6_Q8TEU7_522_LLNIACAAK (UniProt Q8TEU7) | -0.0173 | 0.0201 |

| Target | probe-labelled cysteine peptide fold change (10 µM) | probe-labelled cysteine peptide fold change (50 µM) |
| --- | --- | --- |
| RALBP1_Q15311_411_RQEFLLNCLHR (UniProt Q15311) | 0.0789 | 0.0545 |
| RBM22_Q9NW64_74_TEVCQTCSK (UniProt Q9NW64) | 0.119 | -0.148 |
| RBM28_Q9NW13_71_EITTFEGCK (UniProt Q9NW13) | -0.0471 | -0.0789 |
| RBPJ_Q06330_313_IIQFQATPCPK (UniProt Q06330) | -0.0745 | -0.176 |
| RBM25_P49756_132_LQAFGFCEYK (UniProt P49756) | 0.168 | 0.592 |
| RBM34_P42696_310_HFLDCGSIMAVR (UniProt P42696) | 0.104 | 0.0976 |
| RC3H1_Q5TC82_33_KPISLGCGHTVCK (UniProt Q5TC82) | 0.0546 | -0.023 |
| RBBP4_Q09028_203_EGYGLSWNPNLSGHLLSASDDHTICLWDISAVPK (UniProt Q09028) | 0.181 | 0.0207 |
| RCSD1_Q6JBY9_181_RSQSDCGELGDFR (UniProt Q6JBY9) | -0.852 | -1.19 |
| RARS_P54136_32_NCGCLGASPNLEQLQEENLK (UniProt P54136) | 0.187 | -0.975 |
| RARA_P10276_130_NCIINKVTR (UniProt P10276) | 0.25 | 0.0297 |
| RANBP2_P49792_2982_VCANHVITK (UniProt P49792) | 0.0357 | 0.111 |
| RANBP6_O60518_188_LLDQCIQDQEHPAIR (UniProt O60518) | -0.0322 | -0.269 |
| RB1CC1_Q8TDY2_839_CTAVEIR (UniProt Q8TDY2) | -0.358 | -0.219 |
| RAPGEF6_Q8TEU7_105_GCDCLVLEPSEMIVVENAK (UniProt Q8TEU7) | -0.012 | -0.465 |
| RBBP5_Q15291_126_VLVCPMK (UniProt Q15291) | 0.136 | 0.0339 |
| RANBP6_O60518_741_VAAAESMPFLLECAR (UniProt O60518) | -0.00411 | 0.196 |
| RAN_P62826_112_VCENIPIVLCGNK (UniProt P62826) | 0.0712 | 0.0886 |
| RANGAP1_P46060_303_ELNLSFCEIKR (UniProt P46060) | -0.184 | -0.202 |
| RANBP2_P49792_1552_EGQWDCSSCLVR (UniProt P49792) | 0.105 | -0.393 |
| RBM15B_Q8NDT2_732_NSCFPTSMHILEGDQGVISSLLK (UniProt Q8NDT2) | 0.127 | 0.418 |
| RAP1A_P62834_118_VKDTEDVPMILVGNKCDLEDER (UniProt P62834) | -0.426 | -1 |

| Target | probe-labelled cysteine peptide fold change (10 µM) | probe-labelled cysteine peptide fold change (50 µM) |
| --- | --- | --- |
| RDH11_Q8TC12_133_HLHVLINNAGVMMCPYSK (UniProt Q8TC12) | -0.119 | -0.396 |
| RASSF5_Q8WWW0_225_NCLGMK (UniProt Q8WWW0) | -0.275 | -0.844 |
| RARS_P54136_369_IVFVPGCSIPLTIVK (UniProt P54136) | 0.133 | 0.0185 |
| RANBP2_P49792_2710_ECIIVWEK (UniProt P49792) | -0.195 | -0.0282 |
| RCL1_Q9Y2P8_13_ATQAHSLSYAGCNFLR (UniProt Q9Y2P8) | 0.122 | 0.434 |
| RAN_P62826_112+120_VCENIPIVLCGNK (UniProt P62826) | 0.0758 | -0.0466 |
| RCHY1_Q96PM5_119_EDFFHCLK (UniProt Q96PM5) | 0.0681 | -0.253 |
| RBM25_P49756_132_LQAFGFCEYKEPESTLR (UniProt P49756) | -0.148 | -0.0661 |
| RANBP2_P49792_1424_EGHWDCSICLVR (UniProt P49792) | 0.133 | 0.0538 |
| RANGAP1_P46060_82_RCHWSDMFTGR (UniProt P46060) | 0.0509 | 0.0272 |
| RCC1_P18754_93_SGQVYSFGCNDEGALGR (UniProt P18754) | 0.305 | 0.193 |
| RARS_P54136_502_VLTAEELNAAQTSVAYGCIK (UniProt P54136) | 0.12 | 0.104 |
| RASSF2_P50749_90_IRPPPSSSSWHSGCNLGAQGTTLKPLTVPK (UniProt P50749) | -0.112 | -0.92 |
| RASSF4_Q9H2L5_5_EDCLPSSHVPISDSK (UniProt Q9H2L5) | -0.207 | -0.0576 |
| RBM22_Q9NW64_165_NRPHICSFWVK (UniProt Q9NW64) | -0.319 | -0.539 |
| RBL2_Q08999_635_ADEICIAGSPLTPR (UniProt Q08999) | -0.456 | 0.0435 |
| RBM39_Q14498_303_GYGFITFSDSECAK (UniProt Q14498) | -0.0956 | 0.529 |
| RANBP3_Q9H6Z4_228_SPSEAADEVCALEEK (UniProt Q9H6Z4) | -0.187 | 0.0811 |
| RANBP3_Q9H6Z4_249_NESSNASEEEACEK (UniProt Q9H6Z4) | -0.298 | -0.545 |
| RAI1_Q7Z5J4_828_EEAGGLLQCPEVAK (UniProt Q7Z5J4) | -0.199 | -0.303 |
